For one assay, the system named is IL-6-GFP PC-9GR. Nature of the assay: IL-6-GFP fluorescence relative to DMSO control (fraction of control); higher = more IL-6-GFP expression. Particulars: compound concentration: 10 uM; treatment time: 48 h. The procedure: (§1)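 IL-6-GFP-overexpressing PC-9 and PC-9GR EGFR-mutant lung cancer cells (3000 cells/well, 96-well) were treated for 48 h with each compound of the Selleck L2000 library at 10 uM. IL-6-GFP fluorescence was read on a high-content screening system, and viability by CCK-8 absorbance on a parallel plate set. Each value was normalised as compound well / DMSO control well; two independent replicates.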

A further assay relates to IL-6-GFP PC-9. The description is as above. To be noted: compound concentration: 10 uM; treatment time: 48 h. The procedure:
as §1

Structures are written as SMILES. ± gives the standard deviation of the averaged measurements. The list shows a part of the results. This data set is noisy: repeats of one test often differ as much as different tests do.

For the compound `CN1CCN(c2ccc(C(=O)Nc3n[nH]c4ccc(Cc5cc(F)cc(F)c5)cc34)c(NC3CCOCC3)c2)CC1` [Entrectinib (RXDX-101)], the IL-6-GFP fluorescence in the assay on IL-6-GFP PC-9GR turned out to be 2 ± 0.45; in the assay on IL-6-GFP PC-9, 1.56 ± 0.28.
Regarding `CCOc1cc2ncc(C#N)c(Nc3ccc(OCc4ccccn4)c(Cl)c3)c2cc1NC(=O)/C=C/CN(C)C` [Neratinib (HKI-272)], the IL-6-GFP fluorescence with IL-6-GFP PC-9GR is 0.846 ± 0.23; in the assay with IL-6-GFP PC-9, 0.7012 ± 0.0068.
The matching figures for `Cc1c(N)c(=O)n(-c2ccccc2)n1C` [4-Aminoantipyrine]: 0.706 ± 0.28 and 0.8907 ± 0.0026.
For the compound `O=C(Nc1cnn2ccc(N3CCCC3c3cc(F)ccc3F)nc12)N1CCC(O)C1.O=S(=O)(O)O` (stereo not given) [Larotrectinib (LOXO-101) sulfate], the IL-6-GFP fluorescence is 1.06 ± 0.28 in the assay on IL-6-GFP PC-9GR and 0.665 ± 0.37 with IL-6-GFP PC-9.
With `Cc1cc(Nc2ncc(Cl)c(Nc3ccccc3S(=O)(=O)C(C)C)n2)c(OC(C)C)cc1C1CCNCC1` [Ceritinib (LDK378)], the values for the IL-6-GFP fluorescence in the assay with IL-6-GFP PC-9GR and in the assay with IL-6-GFP PC-9 were 0.537 ± 0.071 and 0.487 ± 0.17, respectively.
On to `Nc1ncn(C2OC(CO)C(O)C2O)c(=O)n1` (stereo not given) [Azacitidine], for which the values for the IL-6-GFP fluorescence in the assay on IL-6-GFP PC-9GR and with IL-6-GFP PC-9 were 0.672 ± 0.28 and 1.04 ± 0.25, respectively.
In the case of `CC(Oc1cc(-c2cnn(C3CCNCC3)c2)cnc1N)c1c(Cl)ccc(F)c1Cl` [(S)-crizotinib], the IL-6-GFP fluorescence with IL-6-GFP PC-9GR was found to be 1.02 ± 0.031; in the assay with IL-6-GFP PC-9, 1 ± 0.18.
For the compound `O=C(c1ccc(F)c(F)c1Nc1ccc(I)cc1F)N1CC(O)(C2CCCCN2)C1` (stereo not given) [Cobimetinib (GDC-0973, RG7420)], the IL-6-GFP fluorescence with IL-6-GFP PC-9GR came to 1.03 ± 0.084; with IL-6-GFP PC-9 it was 1.05 ± 0.034.
Take `Cc1cnc(C(=O)NC2CCCCC/C=C\C3CC3(C(=O)NS(=O)(=O)C3CC3)NC(=O)C3CC(Oc4nc5ccccc5c5ccccc45)CN3C2=O)cn1` (stereo not given) [Paritaprevir (ABT-450)]: the IL-6-GFP fluorescence was determined as 0.845 ± 0.092 with IL-6-GFP PC-9GR and 0.815 ± 0.092 with IL-6-GFP PC-9.
For the compound `CCOC(=O)C(CCc1ccccc1)NC1CSC(c2cccs2)CN(CC(=O)O)C1=O` (stereo not given) [Temocapril], the IL-6-GFP fluorescence with IL-6-GFP PC-9GR stood at 1.09 ± 0.26; in the assay with IL-6-GFP PC-9, 1.01 ± 0.04.
Turning to `Cc1c(Cl)cccc1Nc1ccccc1C(=O)O` [Tolfenamic Acid], the IL-6-GFP fluorescence with IL-6-GFP PC-9GR worked out at 0.602 ± 0.37; in the assay with IL-6-GFP PC-9 it was 0.859 ± 0.21.
With `CC(=O)OC1(C(C)=O)CCC2C3C=C(Cl)C4=CC(=O)C5CC5C4(C)C3CCC21C` (stereo not given) [Cyproterone Acetate], the IL-6-GFP fluorescence is 0.77 ± 0.26 in the assay with IL-6-GFP PC-9GR and 0.783 ± 0.013 in the assay with IL-6-GFP PC-9.
The matching figures for `CCOC(=O)c1c(N)sc2c1CCN(Cc1ccccc1)C2.Cl` [Tinoridine hydrochloride]: 1.37 ± 0.015 and 1.15 ± 0.093.
For `COc1cccc2c1C(=O)c1c(O)c3c(c(O)c1C2=O)CC(O)(C(=O)CO)CC3OC1CC(N)C(O)C(C)O1.Cl` (stereo not given) [Epirubicin HCl], the IL-6-GFP fluorescence with IL-6-GFP PC-9GR was 0.742 ± 0.21; in the assay on IL-6-GFP PC-9, 0.768 ± 0.23.
Consider `Cc1ccc(C(=O)Nc2ccc(CN3CCN(C)CC3)c(C(F)(F)F)c2)cc1C#Cc1cnc2cccnn12`, for which the IL-6-GFP fluorescence in the assay with IL-6-GFP PC-9GR was 2.35 ± 1.9; in the assay with IL-6-GFP PC-9, 2.59 ± 0.28.
The matching figures for `NC(CO)(CO)CO` [Trometamol]: 0.692 ± 0.019 and 0.885 ± 0.046.
Turning to `COC1CC2CCC(C)C(O)(O2)C(=O)C(=O)N2CCCCC2C(=O)OC(C(C)CC2CCC(OCCO)C(OC)C2)CC(=O)C(C)/C=C(\C)C(O)C(OC)C(=O)C(C)CC(C)/C=C/C=C/C=C/1C` (stereo not given) [Everolimus (RAD001)], the IL-6-GFP fluorescence in the assay on IL-6-GFP PC-9GR amounted to 1.06 ± 0.011; in the assay on IL-6-GFP PC-9, 0.985 ± 0.0064.
Regarding `NC(CO)(CO)CO.O=C(c1ccccc1)c1ccc2n1CCC2C(=O)O` (stereo not given) [Ketorolac tromethamine salt], the IL-6-GFP fluorescence is 0.787 ± 0.031 in the assay with IL-6-GFP PC-9GR and 0.685 ± 0.12 in the assay with IL-6-GFP PC-9.
The corresponding values for `O=S1(=O)CCN(CN2CCS(=O)(=O)NC2)CN1` [Taurolidine] are 0.607 ± 0.34 and 0.771 ± 0.058.
Regarding `Nc1ccccc1NC(=O)c1ccc(CNC(=O)OCc2cccnc2)cc1` [Entinostat (MS-275)], the IL-6-GFP fluorescence came out at 1.1 ± 0.042 in the assay on IL-6-GFP PC-9GR and 1.1 ± 0.17 in the assay on IL-6-GFP PC-9.
Consider `COC1CC2CCC(C)C(O)(O2)C(=O)C(=O)N2CCCCC2C(=O)OC(C(C)CC2CCC(OP(C)(C)=O)C(OC)C2)CC(=O)C(C)/C=C(\C)C(O)C(OC)C(=O)C(C)CC(C)/C=C/C=C/C=C/1C` (stereo not given) [Ridaforolimus (Deforolimus, MK-8669)], for which the IL-6-GFP fluorescence worked out at 1.04 ± 0.062 with IL-6-GFP PC-9GR and 0.91 ± 0.06 in the assay on IL-6-GFP PC-9.
On to `CCC1(O)CC2CN(CCc3c([nH]c4ccccc34)C(C(=O)OC)(c3cc4c(cc3OC)N(C=O)C3C(O)(C(=O)OC)C(OC(C)=O)C5(CC)C=CCN6CCC43C65)C2)C1` (stereo not given) [Vincristine], for which the IL-6-GFP fluorescence in the assay with IL-6-GFP PC-9GR is 1.23 ± 0.47; in the assay with IL-6-GFP PC-9 it was 0.781 ± 0.3.
In the case of `N#Cc1ccc(C2CCCc3cncn32)cc1` (stereo not given) [Fadrozole], the figures for the IL-6-GFP fluorescence in the assay on IL-6-GFP PC-9GR and in the assay on IL-6-GFP PC-9 were 1.16 ± 0.3 and 0.89 ± 0.14, respectively.
The corresponding values for `CC(C(=O)O)c1ccc(C(=O)c2ccccc2)s1` (stereo not given) [Tiaprofenic acid] are 0.911 ± 0.046 and 0.884 ± 0.022.
The matching figures for `CN(C)C(=O)COC(=O)Cc1ccc(OC(=O)c2ccc(NC(=N)N)cc2)cc1.CS(=O)(=O)O` [Camostat Mesilate]: 0.989 ± 0.15 and 0.836 ± 0.23.
Turning to `COC1=C(OC)C(=O)C(CCCCCCCCCCO)=C(C)C1=O` [Idebenone], the IL-6-GFP fluorescence in the assay with IL-6-GFP PC-9GR is 1.04 ± 0.4; with IL-6-GFP PC-9 it was 0.91 ± 0.016.
Consider `CCCCOc1ccc(CC(=O)NO)cc1` [Bufexamac], for which the values for the IL-6-GFP fluorescence in the assay on IL-6-GFP PC-9GR and in the assay with IL-6-GFP PC-9 were 0.93 ± 0.12 and 0.908 ± 0.32, respectively.
For the compound `Cc1ccc(NC(=O)c2ccc(CN3CCN(C)CC3)cc2)cc1Nc1nc(-c2cccnc2)cs1` [Masitinib (AB1010)], the figures for the IL-6-GFP fluorescence in the assay with IL-6-GFP PC-9GR and in the assay with IL-6-GFP PC-9 were 1.24 ± 0.18 and 0.958 ± 0.17, respectively.
As to `CC(=O)[N-]S(=O)(=O)c1ccc(N)cc1.[Na+]` [Sulfacetamide Sodium], the IL-6-GFP fluorescence in the assay on IL-6-GFP PC-9GR turned out to be 0.626 ± 0.25; with IL-6-GFP PC-9, 0.967 ± 0.017.
Consider `CC1(C)CCC(C)(C)c2cc(NC(=O)c3ccc(C(=O)O)cc3)ccc21` [Tamibarotene], for which the values for the IL-6-GFP fluorescence in the assay with IL-6-GFP PC-9GR and in the assay with IL-6-GFP PC-9 were 0.658 ± 0.058 and 0.8095 ± 0.0046, respectively.
